Some of the results follow. Residues, ends and D or L forms follow the SMILES beside them. *: point of attachment. Cbz = O=C(OCc1ccccc1)*
How the values were obtained:
Test in all cases: log2 fold change, soluble protein after heating vs DMSO (PISA); higher = thermal stabilisation; K562 cells, 10 uM, 30 min; active = over 0.2 and 3.5 SD of the protein, either way, in both replicates (recomputed)
[1] = compound: C#Cc1cccc(Nc2ncnc3cc(OCCOC)c(OCCOC)cc23)c1 [erlotinib]
Outline: (§1)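 K562 cells at 2×10^6 cells/mL were treated with 10 μM compound for 30 min. Aliquots were heated for 3 min across 48°C-58°C, pooled, and extracted in PBS with 0.5% NP-40 at 4°C; soluble protein was the supernatant after 21,000xg for 90 min. Soluble protein was quantified by TMTpro 16plex LC-MS/MS with channel sums equalised, and reported as log2 fold change in thermal stability against DMSO controls, with values from duplicates.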

By UniProt entry, the sequences of proteins in these tests, tags left out. Where a name states a change or a piece, a line headed by the entry shows the natural chain unless it says otherwise.
UniProt P12956: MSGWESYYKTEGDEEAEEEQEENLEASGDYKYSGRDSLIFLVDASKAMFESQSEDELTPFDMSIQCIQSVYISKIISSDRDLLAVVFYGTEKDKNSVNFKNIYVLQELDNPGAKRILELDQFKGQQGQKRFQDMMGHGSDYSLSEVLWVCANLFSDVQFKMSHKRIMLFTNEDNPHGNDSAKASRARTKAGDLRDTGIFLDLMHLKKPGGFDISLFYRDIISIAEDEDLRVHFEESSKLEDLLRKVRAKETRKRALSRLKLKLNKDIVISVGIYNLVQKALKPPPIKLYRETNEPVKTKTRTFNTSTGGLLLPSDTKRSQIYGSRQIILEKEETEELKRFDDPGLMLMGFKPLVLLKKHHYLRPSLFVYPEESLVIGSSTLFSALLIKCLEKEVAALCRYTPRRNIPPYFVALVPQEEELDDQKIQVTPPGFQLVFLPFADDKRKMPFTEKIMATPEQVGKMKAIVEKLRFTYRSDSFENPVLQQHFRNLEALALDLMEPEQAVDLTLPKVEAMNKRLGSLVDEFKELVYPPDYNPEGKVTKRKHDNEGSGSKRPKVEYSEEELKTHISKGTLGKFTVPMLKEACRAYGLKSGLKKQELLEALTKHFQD
UniProt Q9NPG8: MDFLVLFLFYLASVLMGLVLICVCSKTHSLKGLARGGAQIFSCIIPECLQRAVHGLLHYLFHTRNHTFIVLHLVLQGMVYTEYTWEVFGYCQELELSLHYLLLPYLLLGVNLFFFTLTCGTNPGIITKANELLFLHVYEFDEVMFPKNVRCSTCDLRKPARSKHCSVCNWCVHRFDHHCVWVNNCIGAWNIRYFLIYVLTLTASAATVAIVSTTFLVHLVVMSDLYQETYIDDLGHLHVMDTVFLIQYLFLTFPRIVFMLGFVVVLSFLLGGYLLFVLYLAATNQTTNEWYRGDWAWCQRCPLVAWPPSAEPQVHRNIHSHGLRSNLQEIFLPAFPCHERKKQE
UniProt P51811: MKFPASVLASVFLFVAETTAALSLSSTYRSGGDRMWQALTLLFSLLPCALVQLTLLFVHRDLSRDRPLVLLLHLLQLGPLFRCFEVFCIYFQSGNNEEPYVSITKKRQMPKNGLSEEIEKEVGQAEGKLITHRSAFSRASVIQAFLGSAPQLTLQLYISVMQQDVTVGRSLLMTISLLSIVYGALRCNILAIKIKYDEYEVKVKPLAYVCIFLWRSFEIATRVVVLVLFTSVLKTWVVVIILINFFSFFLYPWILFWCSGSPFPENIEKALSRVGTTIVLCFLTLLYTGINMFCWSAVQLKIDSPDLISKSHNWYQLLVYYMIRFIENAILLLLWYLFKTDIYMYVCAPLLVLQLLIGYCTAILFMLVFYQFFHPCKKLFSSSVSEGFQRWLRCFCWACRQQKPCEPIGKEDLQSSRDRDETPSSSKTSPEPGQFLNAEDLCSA
UniProt Q8IUH4: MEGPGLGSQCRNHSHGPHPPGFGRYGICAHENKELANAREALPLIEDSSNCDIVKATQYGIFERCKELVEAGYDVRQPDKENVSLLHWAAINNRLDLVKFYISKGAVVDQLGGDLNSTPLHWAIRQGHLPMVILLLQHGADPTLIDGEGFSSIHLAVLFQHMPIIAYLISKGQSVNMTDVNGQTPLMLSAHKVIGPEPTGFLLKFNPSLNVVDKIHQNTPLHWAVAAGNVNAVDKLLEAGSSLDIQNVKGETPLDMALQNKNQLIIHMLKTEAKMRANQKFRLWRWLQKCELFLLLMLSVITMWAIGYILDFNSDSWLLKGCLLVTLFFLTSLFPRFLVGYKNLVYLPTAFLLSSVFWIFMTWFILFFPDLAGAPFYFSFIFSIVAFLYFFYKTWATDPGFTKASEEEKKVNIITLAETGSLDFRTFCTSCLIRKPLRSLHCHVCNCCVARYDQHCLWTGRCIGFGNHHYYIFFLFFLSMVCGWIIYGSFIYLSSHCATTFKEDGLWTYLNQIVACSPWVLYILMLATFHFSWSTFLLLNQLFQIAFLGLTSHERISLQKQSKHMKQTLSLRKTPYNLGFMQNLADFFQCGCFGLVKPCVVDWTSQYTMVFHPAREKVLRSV
UniProt Q9BQ24: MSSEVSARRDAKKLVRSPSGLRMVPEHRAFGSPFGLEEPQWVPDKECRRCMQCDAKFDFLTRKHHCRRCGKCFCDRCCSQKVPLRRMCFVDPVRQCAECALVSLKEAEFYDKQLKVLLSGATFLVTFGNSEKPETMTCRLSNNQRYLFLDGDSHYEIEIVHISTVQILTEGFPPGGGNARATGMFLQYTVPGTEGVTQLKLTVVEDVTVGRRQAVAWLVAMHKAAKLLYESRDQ
UniProt P49750: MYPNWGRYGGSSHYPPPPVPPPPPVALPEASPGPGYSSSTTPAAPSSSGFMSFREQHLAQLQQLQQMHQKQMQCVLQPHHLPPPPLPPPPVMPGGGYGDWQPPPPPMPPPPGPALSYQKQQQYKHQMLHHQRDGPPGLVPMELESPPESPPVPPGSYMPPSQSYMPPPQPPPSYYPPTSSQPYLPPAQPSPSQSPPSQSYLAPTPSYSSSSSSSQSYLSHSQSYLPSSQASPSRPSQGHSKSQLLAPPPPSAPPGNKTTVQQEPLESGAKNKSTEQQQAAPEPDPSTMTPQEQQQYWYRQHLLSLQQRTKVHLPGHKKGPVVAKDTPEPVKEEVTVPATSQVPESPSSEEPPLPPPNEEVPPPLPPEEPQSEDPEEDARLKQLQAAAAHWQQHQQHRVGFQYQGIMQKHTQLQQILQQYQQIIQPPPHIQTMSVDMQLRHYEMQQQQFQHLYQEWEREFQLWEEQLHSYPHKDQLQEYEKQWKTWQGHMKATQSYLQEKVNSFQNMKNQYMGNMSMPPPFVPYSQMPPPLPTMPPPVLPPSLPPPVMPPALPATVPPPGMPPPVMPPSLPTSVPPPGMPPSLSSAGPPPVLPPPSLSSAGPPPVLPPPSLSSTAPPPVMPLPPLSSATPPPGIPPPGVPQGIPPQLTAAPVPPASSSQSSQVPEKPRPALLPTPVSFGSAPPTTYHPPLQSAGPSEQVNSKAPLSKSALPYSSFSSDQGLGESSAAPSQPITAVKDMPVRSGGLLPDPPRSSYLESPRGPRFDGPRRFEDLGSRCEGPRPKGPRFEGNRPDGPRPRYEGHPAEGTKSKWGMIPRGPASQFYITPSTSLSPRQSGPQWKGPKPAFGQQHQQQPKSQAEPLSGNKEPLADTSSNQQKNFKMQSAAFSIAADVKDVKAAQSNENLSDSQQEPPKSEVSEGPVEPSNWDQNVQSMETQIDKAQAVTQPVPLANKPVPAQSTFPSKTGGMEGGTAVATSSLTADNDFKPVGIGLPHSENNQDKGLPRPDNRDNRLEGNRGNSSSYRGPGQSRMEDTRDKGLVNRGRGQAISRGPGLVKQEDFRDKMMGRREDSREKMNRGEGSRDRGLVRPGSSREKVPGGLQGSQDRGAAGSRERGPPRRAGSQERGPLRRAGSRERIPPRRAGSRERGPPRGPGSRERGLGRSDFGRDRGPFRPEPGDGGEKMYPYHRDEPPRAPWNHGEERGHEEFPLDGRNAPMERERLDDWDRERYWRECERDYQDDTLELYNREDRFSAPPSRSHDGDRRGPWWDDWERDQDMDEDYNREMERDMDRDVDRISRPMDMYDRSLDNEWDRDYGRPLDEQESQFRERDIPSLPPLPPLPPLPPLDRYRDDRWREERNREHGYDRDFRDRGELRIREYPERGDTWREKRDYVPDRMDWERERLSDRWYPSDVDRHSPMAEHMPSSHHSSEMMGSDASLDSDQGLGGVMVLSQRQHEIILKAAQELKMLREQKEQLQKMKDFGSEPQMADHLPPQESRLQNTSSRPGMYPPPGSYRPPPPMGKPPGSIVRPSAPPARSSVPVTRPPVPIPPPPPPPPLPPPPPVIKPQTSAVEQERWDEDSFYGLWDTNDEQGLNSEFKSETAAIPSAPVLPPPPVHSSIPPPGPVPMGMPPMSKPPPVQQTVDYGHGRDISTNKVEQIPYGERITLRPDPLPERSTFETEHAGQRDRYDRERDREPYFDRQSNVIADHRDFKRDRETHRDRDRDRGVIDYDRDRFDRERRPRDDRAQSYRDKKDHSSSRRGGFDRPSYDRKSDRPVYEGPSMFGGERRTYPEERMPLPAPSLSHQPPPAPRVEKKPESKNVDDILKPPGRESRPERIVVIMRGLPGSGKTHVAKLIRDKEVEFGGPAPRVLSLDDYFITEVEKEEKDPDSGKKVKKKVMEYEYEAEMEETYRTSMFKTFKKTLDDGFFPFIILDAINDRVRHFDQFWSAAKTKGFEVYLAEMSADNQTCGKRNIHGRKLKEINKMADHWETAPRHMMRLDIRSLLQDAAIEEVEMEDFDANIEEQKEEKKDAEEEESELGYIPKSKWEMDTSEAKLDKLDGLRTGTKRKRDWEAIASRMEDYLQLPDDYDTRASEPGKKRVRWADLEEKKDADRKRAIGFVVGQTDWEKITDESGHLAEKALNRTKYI
UniProt Q9NXF8: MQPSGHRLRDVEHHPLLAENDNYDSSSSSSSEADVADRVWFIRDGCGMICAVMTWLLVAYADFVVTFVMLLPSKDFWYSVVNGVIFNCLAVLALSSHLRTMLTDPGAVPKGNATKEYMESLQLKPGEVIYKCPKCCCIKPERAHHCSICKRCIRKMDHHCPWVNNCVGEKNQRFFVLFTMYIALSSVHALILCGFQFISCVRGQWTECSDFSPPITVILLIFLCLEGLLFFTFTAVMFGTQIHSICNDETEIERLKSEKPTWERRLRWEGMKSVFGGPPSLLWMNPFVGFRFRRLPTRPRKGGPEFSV
UniProt Q9H5J0: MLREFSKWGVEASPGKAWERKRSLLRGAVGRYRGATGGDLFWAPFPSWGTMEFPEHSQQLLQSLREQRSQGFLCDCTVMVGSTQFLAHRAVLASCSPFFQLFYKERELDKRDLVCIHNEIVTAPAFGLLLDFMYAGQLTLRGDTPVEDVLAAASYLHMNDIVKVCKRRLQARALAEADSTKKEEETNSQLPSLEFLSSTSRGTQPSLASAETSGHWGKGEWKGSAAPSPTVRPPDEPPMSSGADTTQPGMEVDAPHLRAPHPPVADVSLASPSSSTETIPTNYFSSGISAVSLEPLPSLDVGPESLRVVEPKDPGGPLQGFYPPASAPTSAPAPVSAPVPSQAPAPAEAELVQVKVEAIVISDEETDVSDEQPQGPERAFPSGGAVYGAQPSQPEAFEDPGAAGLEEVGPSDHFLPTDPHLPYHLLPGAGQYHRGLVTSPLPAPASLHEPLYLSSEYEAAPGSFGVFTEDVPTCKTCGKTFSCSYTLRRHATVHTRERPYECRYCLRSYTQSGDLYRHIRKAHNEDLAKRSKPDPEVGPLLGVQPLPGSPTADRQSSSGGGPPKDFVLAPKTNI
UniProt Q9H6R6: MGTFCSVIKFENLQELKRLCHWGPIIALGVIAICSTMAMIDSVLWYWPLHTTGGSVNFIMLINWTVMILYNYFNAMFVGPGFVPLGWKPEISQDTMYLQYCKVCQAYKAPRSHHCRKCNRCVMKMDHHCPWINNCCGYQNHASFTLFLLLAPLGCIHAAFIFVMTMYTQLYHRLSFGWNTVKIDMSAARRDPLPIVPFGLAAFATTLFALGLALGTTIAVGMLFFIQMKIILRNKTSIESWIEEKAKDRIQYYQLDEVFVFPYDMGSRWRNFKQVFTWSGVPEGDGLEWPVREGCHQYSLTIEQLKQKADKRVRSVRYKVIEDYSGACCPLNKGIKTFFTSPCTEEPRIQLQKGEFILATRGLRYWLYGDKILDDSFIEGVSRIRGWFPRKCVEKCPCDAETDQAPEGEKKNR
UniProt Q8NCP5: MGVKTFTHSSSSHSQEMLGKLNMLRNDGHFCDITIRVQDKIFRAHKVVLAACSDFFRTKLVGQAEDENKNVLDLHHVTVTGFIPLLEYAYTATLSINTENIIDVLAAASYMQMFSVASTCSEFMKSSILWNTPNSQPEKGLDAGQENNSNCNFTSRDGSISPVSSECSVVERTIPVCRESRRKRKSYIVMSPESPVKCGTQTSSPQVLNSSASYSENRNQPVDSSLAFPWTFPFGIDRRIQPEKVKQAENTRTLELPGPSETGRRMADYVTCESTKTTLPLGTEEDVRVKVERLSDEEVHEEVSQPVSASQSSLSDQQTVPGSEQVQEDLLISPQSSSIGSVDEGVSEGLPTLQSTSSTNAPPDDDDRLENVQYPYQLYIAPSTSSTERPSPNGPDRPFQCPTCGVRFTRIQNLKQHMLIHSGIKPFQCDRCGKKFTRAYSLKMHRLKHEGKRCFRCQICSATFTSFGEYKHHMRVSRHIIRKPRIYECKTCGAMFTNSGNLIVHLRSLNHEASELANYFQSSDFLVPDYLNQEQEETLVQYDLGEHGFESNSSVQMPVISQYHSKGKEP

[2] = compound: C/C(=N\NC(=O)C1=CC(=CC=C1)S(=O)(=O)N2CCOCC2)/C3=C(C=CC(=C3)Cl)O
Outline: as §1

[3] = compound: C1=CC(=C(C=C1Cl)C2=NC3=NC=CN=C3C(=N2)NC4=CC=NC=C4)F
Outline: as §1

[4] = compound: C1=CC(=CC=C1C2=NC3=C(N2)C=C(C=C3)C(=O)N)OC4=CC=C(C=C4)Cl
Outline: as §1

[5] = compound: C1=CC2=C(C=CC(=C2)/C=C\3/C(=O)NC(=NCC4=CC=CS4)S3)N=C1
Outline: as §1

[6] = compound: C1=CC2=NC=CN=C2C=C1/C=C/3\C(=O)NC(=O)S3
Outline: as §1

[7] = compound: C1=CC=C(C=C1)C2=NC(=C(N2)C3=CC=NC=C3)C4=CC(=C(C=C4)Cl)O
Outline: as §1

[8] = compound: C1=CC=C2C(=C1)C3=NNC4=CC=CC(=C43)C2=O
Outline: as §1

[9] = compound: C1CCN(C1)C(=O)NC2=CC=CC(=C2)NC3=NC=C(C(=N3)NCCC4=CN=CN4)Br
Outline: as §1

[10] = compound: C1CN(CCC1(CC2=CC=C(C=C2)Cl)N)C3=NC=NC4=C3C=CN4
Outline: as §1

[11] = compound: C1COCCN1CCN2C3=CC=CC=C3N=C2NC(=O)C4=CC(=CC=C4)[N+](=O)[O-] [IRAK-1-4 Inhibitor I]
Outline: as §1

[12] = compound: C=CC(=O)N1CCC[C@@H](n2nc(-c3ccc(Oc4ccccc4)cc3)c3c(N)ncnc32)C1 [ibrutinib]
Outline: as §1

[13] = compound: CC(=O)c1cnc2ccc(-c3cc(Cl)c(O)c(Cl)c3)nc2c1N[C@H]1CC[C@H](CN(C)C)CC1
Outline: as §1

[14] = compound: CC(C)(C)Cn1c(N)nc2ccc(-c3[nH]c(C(C)(C)C)nc3-c3ccc(F)cc3)nc21 [ralimetinib]
Outline: as §1

[15] = compound: CC(C)(O)CC(=O)NCCn1ccc2ncnc(Nc3ccc(Oc4cccc(C(F)(F)F)c4)c(Cl)c3)c21
Outline: as §1

[16] = compound: CC(C)C1=C2N=C(C=C(N2N=C1)NCC3=CC=CC=C3)NCCCCCCN
Outline: as §1

[17] = compound: CC(C)C[C@@H](C=O)NC(=O)[C@H](CC(C)C)NC(=O)[C@H](CC(C)C)NC(=O)OCc1ccccc1
Outline: as §1

[18] = compound: CC(C)N(C[C@H]1O[C@@H](n2cnc3c(N)ncnc32)[C@H](O)[C@@H]1O)[C@H]1C[C@@H](CCc2nc3cc(C(C)(C)C)ccc3[nH]2)C1 [pinometostat]
Outline: as §1

[19] = compound: CC1=C(C2=C(C=C1)C(=O)C3=CC=CC=C3N2CCCN)C
Outline: as §1

[20] = compound: CC1=C(C(CC(=O)N1)C2=CC=C(C=C2)C(F)(F)F)C(=O)NC3=C(C=C4C(=C3)C=NN4)F
Outline: as §1

Measured: log2 fold change

XRCC6 (UniProt P12956)
inactive: [1] 0.025 | [2] 0.103 | [3] 0.093 | [4] 0.011 | [5] 0.065 | [6] 0.031 | [7] -0.023 | [8] -0.036 | [9] -0.043 | [10] -0.025 | [11] -0.046 | [12] -0.057 | [13] -0.12 | [14] -0.004 | [15] -0.124 | [16] -0.195 | [17] 0.074 | [18] -0.01 | [19] -0.008

ZDHHC4 (UniProt Q9NPG8)
inactive: [1] 0.178 | [3] 0.096 | [4] 0.053 | [6] -0.022 | [11] 0.079 | [12] 0.062 | [15] -0.15 | [16] 0.082 | [18] -0.113

ZMYND8 isoform 19 (UniProt Q9ULU4)
inactive: [1] 0.01 | [3] -0.247 | [4] 0.056 | [6] 0.183 | [11] 0.037 | [12] -0.043 | [15] -0.028 | [16] -0.288 | [18] 0.038

ZBTB43 (UniProt O43298)
active: [19] -1.06
inactive: [1] 0.081 | [2] 0.02 | [3] -0.194 | [4] 0.037 | [5] -0.081 | [6] -0.054 | [7] -0.064 | [8] -0.161 | [9] -0.052 | [10] -0.053 | [11] -0.043 | [12] 0.064 | [13] 0.008 | [14] 0.012 | [15] 0.175 | [16] 0.138 | [17] 0.05 | [18] -0.05

XK (UniProt P51811)
inactive: [1] -0.018 | [2] -0.134 | [4] 0.002 | [5] -0.135 | [6] -0.064 | [8] -0.071 | [11] -0.059 | [12] 0.491 | [13] -0.004 | [16] 0.134 | [18] -0.071 | [20] 0.026

Reprinted from the results shown (four entries):
XRCC6 (UniProt P12956)
inactive: [1] 0.025 | [2] 0.103 | [3] 0.093 | [4] 0.011 | [5] 0.065 | [6] 0.031 | [7] -0.023 | [8] -0.036 | [9] -0.043 | [10] -0.025 | [11] -0.046 | [12] -0.057 | [13] -0.12 | [14] -0.004 | [15] -0.124 | [16] -0.195 | [17] 0.074 | [18] -0.01 | [19] -0.008

ZDHHC4 (UniProt Q9NPG8)
inactive: [1] 0.178 | [3] 0.096 | [4] 0.053 | [6] -0.022 | [11] 0.079 | [12] 0.062 | [15] -0.15 | [16] 0.082 | [18] -0.113

ZMYND8 isoform 19 (UniProt Q9ULU4)
inactive: [1] 0.01 | [3] -0.247 | [4] 0.056 | [6] 0.183 | [11] 0.037 | [12] -0.043 | [15] -0.028 | [16] -0.288 | [18] 0.038

ZBTB43 (UniProt O43298)
active: [19] -1.06
inactive: [1] 0.081 | [2] 0.02 | [3] -0.194 | [4] 0.037 | [5] -0.081 | [6] -0.054 | [7] -0.064 | [8] -0.161 | [9] -0.052 | [10] -0.053 | [11] -0.043 | [12] 0.064 | [13] 0.008 | [14] 0.012 | [15] 0.175 | [16] 0.138 | [17] 0.05 | [18] -0.05

(cont.)

ZBTB10 (UniProt Q96DT7)
inactive: [1] 0.058 | [2] 0.035 | [3] -0.046 | [4] 0.038 | [5] -0.193 | [6] 0.272 | [8] 0.076 | [9] -0.063 | [10] -0.132 | [12] 0.01 | [13] -0.119 | [15] -0.027 | [16] -0.026 | [20] 0.081 | [19] 0.02

ZDHHC13 (UniProt Q8IUH4)
inactive: [1] 0.045 | [2] -0.019 | [3] -0.189 | [4] -0.115 | [5] -0.018 | [7] 0.339 | [8] -0.007 | [13] -0.249 | [14] 0.035 | [15] 0.061 | [16] -0.138 | [17] 0.014

YES1 (UniProt P07947)
inactive: [1] -0.145 | [2] 0.072 | [3] -0.179 | [4] 0.049 | [5] 0.094 | [6] -0.09 | [7] -0.112 | [8] -0.153 | [9] -0.139 | [10] -0.059 | [11] -0.152 | [12] 0.188 | [14] -0.09 | [15] -0.054 | [16] 0 | [17] 0.068 | [18] 0.035 | [19] 0.043
active: [13] -0.819

ZFYVE21 isoform 2 (UniProt Q9BQ24)
inactive: [1] 0.074 | [2] 0.262 | [4] 0.017 | [5] -0.04 | [7] 0.044 | [8] -0.05 | [9] 0.077 | [10] 0.097 | [13] -0.02 | [14] 0 | [16] -0.114 | [17] 0.089 | [19] -0.023

YLPM1 (UniProt P49750)
inactive: [1] 0.084 | [2] 0.03 | [3] 0.057 | [4] 0.033 | [5] 0.057 | [6] 0.046 | [7] -0.024 | [8] 0.02 | [9] -0.083 | [10] 0.102 | [11] -0.06 | [12] -0.117 | [13] -0.093 | [14] 0.043 | [15] -0.002 | [16] -0.086 | [17] 0.028 | [18] 0.003 | [19] 0.023

ZDHHC7 isoform 2 (UniProt Q9NXF8)
inactive: [1] 0.09 | [2] 0.057 | [3] 0.093 | [4] 0.022 | [5] 0.161 | [7] 0.026 | [8] 0.01 | [9] 0.028 | [10] 0 | [11] 0 | [13] -0.017 | [14] -0.033 | [15] -0.026 | [16] -0.008 | [17] -0.069 | [18] -0.024 | [19] 0.005

ZC3H18 (UniProt Q86VM9)
inactive: [1] -0.066 | [2] 0.01 | [3] -0.134 | [4] 0.045 | [5] 0.003 | [6] 0.035 | [7] 0.015 | [8] -0.211 | [9] -0.126 | [10] -0.124 | [11] -0.036 | [12] 0.002 | [13] -0.155 | [14] 0.03 | [15] 0.034 | [16] -0.122 | [17] -0.042 | [18] 0.053
active: [19] -0.612

ZBTB3 (UniProt Q9H5J0)
inactive: [1] 0.056 | [2] 0.143 | [4] 0.155 | [5] -0.22 | [6] 0.075 | [7] -0.169 | [8] 0.186 | [9] 0.028 | [10] -0.052 | [11] 0.098 | [12] 0.047 | [13] 0.294 | [14] 0 | [16] 0.206 | [17] 0.069 | [18] -0.035 | [20] -0.091 | [19] 0.304

ZDHHC6 (UniProt Q9H6R6)
inactive: [3] -0.083
active: [15] -0.932

ZBTB44 (UniProt Q8NCP5)
inactive: [2] 0.02 | [5] 0.011 | [8] -0.249 | [13] -0.181

YTHDC2 (UniProt Q9H6S0)
inactive: [2] -0.117 | [3] -0.165 | [5] -0.091 | [8] 0.108 | [11] -0.219 | [13] -0.11 | [15] 0.097 | [18] 0.328

ZFC3H1 (UniProt O60293)
inactive: [2] -0.096 | [5] 0.214 | [6] 0.018 | [7] -0.086 | [8] -0.068 | [12] 0.073 | [13] 0.038 | [14] 0.04 | [17] -0.012 | [20] 0.061

— the supplement of paper PMC10849652
